Drawing on publication PMC8465061, this text covers Kd for 1 sequence.

The target of this data set is T1, TTHA1359 (CRP/FNR family transcriptional regulator) (Thermus thermophilus HB8) (UniProt Q5SIL0).
T1 sequence (looked up): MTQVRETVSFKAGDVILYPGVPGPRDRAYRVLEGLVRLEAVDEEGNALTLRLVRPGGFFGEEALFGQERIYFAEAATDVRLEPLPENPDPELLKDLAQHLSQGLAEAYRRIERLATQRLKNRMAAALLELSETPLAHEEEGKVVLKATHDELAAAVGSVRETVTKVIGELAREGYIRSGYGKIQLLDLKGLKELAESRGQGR
Kind of data set: BLI. To be noted: ambiguous fit; BLI: streptavidin tips, 5.7-461 nM TTHA1359, buffer as in cited earlier work; recombinant protein; residues 1-202; label: 5' biotin-dT on strand 2; letters put together from the description.

For at least one entry, the source does not settle the construct or the ends of the probe. Tags and fusion partners may be left off the protein sequences shown.

As for “CTAGGAATTCGTGCAGAGGTGAATACGAAAAACACACACCATCCCTCCAGAAGCTTGGACA (double strand) [ST2_1359_ctrl (REPSAis)]”, the Kd – broadly, a measure of binding affinity in units of concentration – is > 1000 nM.
